# Screening data

From PubChem BioAssay record AID504749 (NCATS, 2011).

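A panel of P. falciparum strains inside erythrocytes is exposed to compounds for three days, then a DNA-binding dye reports the amount of parasite DNA.
Each compound was titrated across a series from about 0.000037 to 29 µM.
The number is the fitted AC50, the concentration giving a half-maximal change in signal; a lower value means higher potency, whether the curve shows a decrease or an increase.
Calls follow the curve class and fit quality: every row here is inconclusive, covering signal-raising curves and weak, poorly fitted, partial or highest-dose-only inhibition curves.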

Values are in µM.
All entries here are filed as inconclusive.
Only part of the assay is shown, chiefly results filed as inconclusive.
A potency from a partial, single-point or poor curve is only a rough figure.

structure: Nc1c2ccccc2nc2ccccc12
setting: CP250
fitted potency (µM): 10
curve: inhibitor, single point

structure: Nc1c2ccccc2nc2ccccc12
setting: CP215
fitted potency (µM): 16.94
curve: inhibitor, single point

structure: Nc1c2ccccc2nc2ccccc12
setting: HB3
fitted potency (µM): 11.22
curve: inhibitor, single point

structure: Nc1c2ccccc2nc2ccccc12
setting: C2A
fitted potency (µM): 10
curve: inhibitor, single point

structure: Nc1c2ccccc2nc2ccccc12
setting: CP201
fitted potency (µM): 19.01
curve: inhibitor, single point

structure: Nc1c2ccccc2nc2ccccc12
setting: CP325
fitted potency (µM): 16.94
curve: inhibitor, single point

structure: Nc1c2ccccc2nc2ccccc12
setting: CP297
fitted potency (µM): 16.94
curve: inhibitor, single point

structure: Nc1c2ccccc2nc2ccccc12
setting: JCK
fitted potency (µM): 11.22
curve: inhibitor, single point

structure: Nc1c2ccccc2nc2ccccc12
setting: CP265
fitted potency (µM): 17.78
curve: inhibitor, single point

structure: Nc1c2ccccc2nc2ccccc12
setting: CP335
fitted potency (µM): 19.01
curve: inhibitor, single point

structure: Nc1c2ccccc2nc2ccccc12
setting: CP329
fitted potency (µM): 16.94
curve: inhibitor, single point

structure: Nc1c2ccccc2nc2ccccc12
setting: CP194
fitted potency (µM): 15.1
curve: inhibitor, single point

structure: CCOC(=O)Oc1c(OC)cc(C(=O)O[C@H]2C[C@H]3CN4CCc5c([nH]c6cc(OC)ccc56)[C@@H]4C[C@H]3[C@@H](C(=O)OC)[C@@H]2OC)cc1OC
setting: CP315
fitted potency (µM): 8.087
curve: inhibitor, single point

structure: CCOC(=O)Oc1c(OC)cc(C(=O)O[C@H]2C[C@H]3CN4CCc5c([nH]c6cc(OC)ccc56)[C@@H]4C[C@H]3[C@@H](C(=O)OC)[C@@H]2OC)cc1OC
setting: JCK
fitted potency (µM): 7.08
curve: inhibitor, single point

structure: CCOC(=O)Oc1c(OC)cc(C(=O)O[C@H]2C[C@H]3CN4CCc5c([nH]c6cc(OC)ccc56)[C@@H]4C[C@H]3[C@@H](C(=O)OC)[C@@H]2OC)cc1OC
setting: CP335
fitted potency (µM): 8.087
curve: inhibitor, single point

structure: CCOC(=O)Oc1c(OC)cc(C(=O)O[C@H]2C[C@H]3CN4CCc5c([nH]c6cc(OC)ccc56)[C@@H]4C[C@H]3[C@@H](C(=O)OC)[C@@H]2OC)cc1OC
setting: FAB9
fitted potency (µM): 6.31
curve: inhibitor, single point

structure: CCOC(=O)Oc1c(OC)cc(C(=O)O[C@H]2C[C@H]3CN4CCc5c([nH]c6cc(OC)ccc56)[C@@H]4C[C@H]3[C@@H](C(=O)OC)[C@@H]2OC)cc1OC
setting: Dd2
fitted potency (µM): 7.08
curve: inhibitor, single point

structure: CCOC(=O)Oc1c(OC)cc(C(=O)O[C@H]2C[C@H]3CN4CCc5c([nH]c6cc(OC)ccc56)[C@@H]4C[C@H]3[C@@H](C(=O)OC)[C@@H]2OC)cc1OC
setting: PC15
fitted potency (µM): 8.912
curve: inhibitor, single point

structure: CCOC(=O)Oc1c(OC)cc(C(=O)O[C@H]2C[C@H]3CN4CCc5c([nH]c6cc(OC)ccc56)[C@@H]4C[C@H]3[C@@H](C(=O)OC)[C@@H]2OC)cc1OC
setting: P94_40
fitted potency (µM): 4.467
curve: inhibitor, single point

structure: CCOC(=O)Oc1c(OC)cc(C(=O)O[C@H]2C[C@H]3CN4CCc5c([nH]c6cc(OC)ccc56)[C@@H]4C[C@H]3[C@@H](C(=O)OC)[C@@H]2OC)cc1OC
setting: PC49
fitted potency (µM): 5.012
curve: inhibitor, single point

structure: CCOC(=O)Oc1c(OC)cc(C(=O)O[C@H]2C[C@H]3CN4CCc5c([nH]c6cc(OC)ccc56)[C@@H]4C[C@H]3[C@@H](C(=O)OC)[C@@H]2OC)cc1OC
setting: HB3
fitted potency (µM): 6.31
curve: inhibitor, single point

structure: CCOC(=O)Oc1c(OC)cc(C(=O)O[C@H]2C[C@H]3CN4CCc5c([nH]c6cc(OC)ccc56)[C@@H]4C[C@H]3[C@@H](C(=O)OC)[C@@H]2OC)cc1OC
setting: CP329
fitted potency (µM): 7.208
curve: inhibitor, single point

structure: CCOC(=O)Oc1c(OC)cc(C(=O)O[C@H]2C[C@H]3CN4CCc5c([nH]c6cc(OC)ccc56)[C@@H]4C[C@H]3[C@@H](C(=O)OC)[C@@H]2OC)cc1OC
setting: SC27B
fitted potency (µM): 7.08
curve: inhibitor, single point

structure: CCOC(=O)Oc1c(OC)cc(C(=O)O[C@H]2C[C@H]3CN4CCc5c([nH]c6cc(OC)ccc56)[C@@H]4C[C@H]3[C@@H](C(=O)OC)[C@@H]2OC)cc1OC
setting: ECU
fitted potency (µM): 7.08
curve: inhibitor, single point

structure: CCOC(=O)Oc1c(OC)cc(C(=O)O[C@H]2C[C@H]3CN4CCc5c([nH]c6cc(OC)ccc56)[C@@H]4C[C@H]3[C@@H](C(=O)OC)[C@@H]2OC)cc1OC
setting: DFO2036
fitted potency (µM): 7.943
curve: inhibitor, single point

structure: CCOC(=O)Oc1c(OC)cc(C(=O)O[C@H]2C[C@H]3CN4CCc5c([nH]c6cc(OC)ccc56)[C@@H]4C[C@H]3[C@@H](C(=O)OC)[C@@H]2OC)cc1OC
setting: CP325
fitted potency (µM): 8.087
curve: inhibitor, single point

structure: CCOC(=O)Oc1c(OC)cc(C(=O)O[C@H]2C[C@H]3CN4CCc5c([nH]c6cc(OC)ccc56)[C@@H]4C[C@H]3[C@@H](C(=O)OC)[C@@H]2OC)cc1OC
setting: CP305
fitted potency (µM): 5.726
curve: inhibitor, single point

structure: O=C(OC1C[C@H]2CC[C@@H](C1)[N+]21CCCC1)C(O)(c1ccccc1)c1ccccc1 (stereo partly shown)
setting: CP291
fitted potency (µM): 6.746
curve: inhibitor, partial curve

structure: O=C(OC1C[C@H]2CC[C@@H](C1)[N+]21CCCC1)C(O)(c1ccccc1)c1ccccc1 (stereo partly shown)
setting: CP250
fitted potency (µM): 3.548
curve: inhibitor, full curve, poor fit

structure: O=C(OC1C[C@H]2CC[C@@H](C1)[N+]21CCCC1)C(O)(c1ccccc1)c1ccccc1 (stereo partly shown)
setting: ATS95
fitted potency (µM): 7.08
curve: inhibitor, partial curve